Reference: paper PMC4070925

Tested on: thrombin
Test: plate binding assay (streptavidin-peroxidase)
Conditions: Thrombin-coated plate; washes 40 mM HEPES pH 7.5, 0.05% Tween-20; commercial protein; label: 5'-biotin; single-stranded DNA

Sequence: TTGGTTGGCGTTCAAAGCAGTCTTGGGCTA [Truncate IV]
- half-maximal binding: > 1000 nM
